Assay results as given in publication PMC10542350, “Structural basis of nucleosome deacetylation and DNA linker tightening by Rpd3S histone deacetylase complex” (Cell Research, 2023).
Results are given in words; binding and its absence hold for the method and conditions named. Some binding calls cover weakened binding; strength is not graded here. For part of these data: Tags and fused reporters may be left off the sequences shown.

By UniProt entry, the sequences of proteins in these tests, tags left out. Residues count along the entry.
UniProt P22579, residues 214-1536: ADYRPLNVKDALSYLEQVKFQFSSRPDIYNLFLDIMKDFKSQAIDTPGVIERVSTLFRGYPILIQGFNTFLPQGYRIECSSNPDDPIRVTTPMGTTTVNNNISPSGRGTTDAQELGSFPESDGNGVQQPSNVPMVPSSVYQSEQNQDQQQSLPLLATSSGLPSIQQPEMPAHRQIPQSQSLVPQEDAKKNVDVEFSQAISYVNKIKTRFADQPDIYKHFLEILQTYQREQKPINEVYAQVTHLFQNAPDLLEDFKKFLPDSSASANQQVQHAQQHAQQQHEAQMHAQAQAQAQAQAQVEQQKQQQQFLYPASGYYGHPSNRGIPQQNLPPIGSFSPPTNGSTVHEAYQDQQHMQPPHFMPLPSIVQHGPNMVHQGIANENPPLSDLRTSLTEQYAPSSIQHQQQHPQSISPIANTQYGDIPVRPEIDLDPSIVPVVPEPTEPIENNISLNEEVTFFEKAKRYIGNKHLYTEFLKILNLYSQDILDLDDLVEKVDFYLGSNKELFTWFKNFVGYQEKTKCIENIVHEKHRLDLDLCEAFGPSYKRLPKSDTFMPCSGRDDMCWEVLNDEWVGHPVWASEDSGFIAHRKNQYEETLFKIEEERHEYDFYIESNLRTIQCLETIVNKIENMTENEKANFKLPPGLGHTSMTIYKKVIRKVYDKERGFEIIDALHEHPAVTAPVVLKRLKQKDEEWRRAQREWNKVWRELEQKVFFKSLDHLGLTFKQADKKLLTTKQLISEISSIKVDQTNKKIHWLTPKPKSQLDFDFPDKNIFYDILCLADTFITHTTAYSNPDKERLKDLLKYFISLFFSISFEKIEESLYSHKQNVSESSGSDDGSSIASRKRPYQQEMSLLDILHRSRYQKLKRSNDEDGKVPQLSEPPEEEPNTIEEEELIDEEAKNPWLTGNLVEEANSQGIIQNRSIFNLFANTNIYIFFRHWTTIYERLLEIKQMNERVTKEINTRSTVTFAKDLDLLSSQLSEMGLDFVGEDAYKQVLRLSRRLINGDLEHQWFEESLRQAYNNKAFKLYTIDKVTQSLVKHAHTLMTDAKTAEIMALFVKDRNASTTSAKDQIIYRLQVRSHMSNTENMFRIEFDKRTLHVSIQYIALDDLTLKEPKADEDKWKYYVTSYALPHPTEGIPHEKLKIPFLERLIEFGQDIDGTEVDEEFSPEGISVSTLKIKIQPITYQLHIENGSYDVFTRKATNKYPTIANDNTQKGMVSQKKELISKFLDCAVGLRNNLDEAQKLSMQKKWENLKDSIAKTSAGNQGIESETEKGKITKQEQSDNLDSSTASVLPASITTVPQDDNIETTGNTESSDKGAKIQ
UniProt Q12432: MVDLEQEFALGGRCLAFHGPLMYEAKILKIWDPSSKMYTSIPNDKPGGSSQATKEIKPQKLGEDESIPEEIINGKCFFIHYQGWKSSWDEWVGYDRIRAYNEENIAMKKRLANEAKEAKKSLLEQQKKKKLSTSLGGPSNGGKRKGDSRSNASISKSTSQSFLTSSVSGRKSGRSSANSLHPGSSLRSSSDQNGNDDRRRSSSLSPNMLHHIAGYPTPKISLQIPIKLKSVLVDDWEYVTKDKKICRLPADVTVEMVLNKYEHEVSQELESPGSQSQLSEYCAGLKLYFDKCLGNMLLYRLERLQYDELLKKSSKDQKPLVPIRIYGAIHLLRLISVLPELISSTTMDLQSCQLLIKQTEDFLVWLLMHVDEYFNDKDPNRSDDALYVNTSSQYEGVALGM

Columns and labels:
[1] = biological target: T1, Rco1 (Saccharomyces cerevisiae) (UniProt Q04779); experiment: cryo-EM structure; purified apo Rpd3S complex; 3D map of 3.5 Å; both purified
T1 sequence: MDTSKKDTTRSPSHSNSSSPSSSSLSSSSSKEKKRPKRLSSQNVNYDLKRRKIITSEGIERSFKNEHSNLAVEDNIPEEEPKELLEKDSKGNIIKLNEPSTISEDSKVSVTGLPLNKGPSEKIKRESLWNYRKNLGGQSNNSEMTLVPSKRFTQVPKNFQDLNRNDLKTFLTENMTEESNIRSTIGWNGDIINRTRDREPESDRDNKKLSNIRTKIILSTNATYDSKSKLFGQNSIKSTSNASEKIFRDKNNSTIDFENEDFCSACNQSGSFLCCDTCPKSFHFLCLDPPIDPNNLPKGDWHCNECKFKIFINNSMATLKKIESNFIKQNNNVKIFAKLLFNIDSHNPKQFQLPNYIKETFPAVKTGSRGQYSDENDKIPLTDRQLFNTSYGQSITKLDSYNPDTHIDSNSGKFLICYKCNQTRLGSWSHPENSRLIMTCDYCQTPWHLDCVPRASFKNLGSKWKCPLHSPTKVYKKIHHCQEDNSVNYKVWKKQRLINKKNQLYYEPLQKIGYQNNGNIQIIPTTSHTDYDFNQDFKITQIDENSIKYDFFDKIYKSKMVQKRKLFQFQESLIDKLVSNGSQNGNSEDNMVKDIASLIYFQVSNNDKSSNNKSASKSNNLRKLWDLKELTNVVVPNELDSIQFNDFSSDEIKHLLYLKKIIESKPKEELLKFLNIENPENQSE

[2] = biological target: Sin3 (residues 214–1536) (Saccharomyces cerevisiae) (UniProt P22579); experiment: SEC-MALS; 100 μL Rpd3S at 40 μM, Superdex 200 5/150, 20 mM Tris-HCl pH 7.5, 150 mM NaCl; both purified
[3] = biological target: T2, Rpd3 (Saccharomyces cerevisiae) (UniProt P32561); experiment: cryo-EM structure; purified apo Rpd3S complex; 3D map of 3.5 Å; both purified
T2 sequence: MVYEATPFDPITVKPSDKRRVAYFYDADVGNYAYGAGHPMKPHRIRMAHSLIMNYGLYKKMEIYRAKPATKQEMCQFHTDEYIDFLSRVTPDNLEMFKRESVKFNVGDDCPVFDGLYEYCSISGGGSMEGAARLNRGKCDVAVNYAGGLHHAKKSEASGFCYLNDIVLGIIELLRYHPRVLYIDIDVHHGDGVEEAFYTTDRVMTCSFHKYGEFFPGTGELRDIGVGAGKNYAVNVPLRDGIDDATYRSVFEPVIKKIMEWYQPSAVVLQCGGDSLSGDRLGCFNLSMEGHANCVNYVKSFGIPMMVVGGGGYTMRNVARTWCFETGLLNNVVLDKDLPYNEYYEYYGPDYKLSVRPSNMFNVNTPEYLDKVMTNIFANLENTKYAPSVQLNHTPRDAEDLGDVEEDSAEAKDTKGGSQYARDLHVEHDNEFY

[4] = biological target: Sin3 (residues 214–1536) (Saccharomyces cerevisiae) (UniProt P22579); experiment: as above
[5] = biological target: Sin3 (residues 214–1536) (Saccharomyces cerevisiae) (UniProt P22579); experiment: cross-linking; XL-MS: purified apo Rpd3S, 1.5 mg/mL in HEPES buffer, 1 mM BS3, room temperature, 30 min; LC-MS/MS, pLink2; both purified

Measured: binding

Eaf3 (from UniProt Q12432 1-401)
binds: [1] | [2]

B1: Rco1 (natural protein, Saccharomyces cerevisiae, UniProt Q04779 1-684, looked up)
chain: T1 sequence
notes: Rco1, Saccharomyces cerevisiae; two copies (Rco1A, Rco1B) stand in the Rpd3S complex; also called Rco1A; Rco1B; source: High Five insect cells (baculovirus), co-expressed with the other Rpd3S subunits; purified as part of the complex (streptavidin column, Resource Q, gel filtration); not shown: double StrepII, C-terminal, kept
binds: [3] | [4] | [2] | [5]
